Measurements as given in PubChem BioAssay AID488840 (Broad Institute, 2010).
In all, about 1,400 compounds went through this assay and about 45 (3%) were called active.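 How the source made its calls: active means half-maximal dose of signal decrease from fit no higher than ten times the top valid tested dose; inconclusive means fit invalid, or curve flat with 30 to 70% inhibition; inactive means the rest.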 Some of the results follow. Potency and affinity values are given separately.

Amino acid sequences for entries named in this document (tags omitted). A change or cut given only in a name is not applied to a line headed by its entry.
UniProt O75164: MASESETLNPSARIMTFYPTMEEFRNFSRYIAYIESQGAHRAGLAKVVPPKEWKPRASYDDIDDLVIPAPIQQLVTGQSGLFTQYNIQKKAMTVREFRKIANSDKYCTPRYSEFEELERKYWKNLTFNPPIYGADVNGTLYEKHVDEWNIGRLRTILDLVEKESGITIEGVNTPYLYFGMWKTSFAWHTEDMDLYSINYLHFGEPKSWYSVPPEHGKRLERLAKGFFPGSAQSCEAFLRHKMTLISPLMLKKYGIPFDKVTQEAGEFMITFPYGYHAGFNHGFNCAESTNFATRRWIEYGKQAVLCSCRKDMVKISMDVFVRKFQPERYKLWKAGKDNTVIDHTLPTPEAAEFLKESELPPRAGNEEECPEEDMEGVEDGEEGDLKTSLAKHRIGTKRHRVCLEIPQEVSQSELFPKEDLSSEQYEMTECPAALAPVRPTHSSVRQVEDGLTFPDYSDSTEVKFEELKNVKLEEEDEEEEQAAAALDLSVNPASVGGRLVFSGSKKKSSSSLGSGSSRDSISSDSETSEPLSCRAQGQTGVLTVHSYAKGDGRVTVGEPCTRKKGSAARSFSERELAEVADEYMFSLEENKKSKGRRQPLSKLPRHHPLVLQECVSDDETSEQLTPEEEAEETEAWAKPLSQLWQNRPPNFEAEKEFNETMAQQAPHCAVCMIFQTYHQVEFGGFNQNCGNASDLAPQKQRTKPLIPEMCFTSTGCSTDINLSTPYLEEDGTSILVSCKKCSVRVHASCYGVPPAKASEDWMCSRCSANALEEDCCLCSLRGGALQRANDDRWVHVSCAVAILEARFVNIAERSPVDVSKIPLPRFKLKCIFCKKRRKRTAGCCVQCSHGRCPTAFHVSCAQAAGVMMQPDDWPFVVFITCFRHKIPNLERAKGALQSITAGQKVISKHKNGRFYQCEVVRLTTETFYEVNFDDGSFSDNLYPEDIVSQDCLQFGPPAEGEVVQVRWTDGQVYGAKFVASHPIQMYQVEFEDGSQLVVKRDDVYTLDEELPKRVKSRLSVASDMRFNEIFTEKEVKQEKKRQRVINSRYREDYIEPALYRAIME

These compounds were tested against Lysine-specific demethylase 4A (Homo sapiens) (UniProt O75164) (assay: inhibition of JMJD2A H3K9me3 demethylation – biochemical, DELFIA europium, cherry-picked samples, selectivity assay for GASC-1 inhibitor project, dose response (AID 488840;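 further: europium signal reports the dimethyl H3K9 product detected by antibody so inhibitors lower it; 0% = median of neutral control wells and -100% = median of positive control wells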)). Conditions: GST-JMJD2A(1-420) H3K9me3 demethylation; at 6 µM (top of the series) unless noted.

Activity change, negative = inhibition, inactive:
CCCN(CC(=O)Nc1ccccc1C)C(=O)C1CCN(S(=O)(=O)c2ccccc2C(F)(F)F)CC1 4.14%, CCOC(=O)C1=C(N)Oc2ccc3ccccc3c2C1c1cccnc1 (stereo not given) 1.91%, CC(C)n1cnc2c(NCc3ccccc3)nc(NCc3ccccc3)nc21 4.61%, Cc1cccc(NC(=O)CC2Nc3cccc4cccc(c34)NC2=O)c1 (stereo not given) -1.51%, C[C@]12c3[nH]c4ccccc4c3CCN1C(=O)C(CC(=O)NCc1cccc(C(F)(F)F)c1)C[C@@H]2C(=O)N1CCCCC1 (stereo not given in full) 0.594%, O=C(/C=C/c1cccs1)NC1CCS(=O)(=O)C1 (stereo not given) 0.82%, CN(c1ccc(C(=O)O)cc1)S(=O)(=O)c1ccccc1 3.52%, O=S1(=O)CCC(N=Nc2c(O)n(Cc3ccccc3)c3ccccc23)C1 (stereo not given) 1.69%, NS(=O)(=O)c1ccc(CNC(=S)Nc2ccc(F)c(Cl)c2)cc1 -0.901%, COc1ccc(N2C(=O)CSC23CCCCC3)cc1 1.88%, CC(C)(C)c1ccc(C2(C)NC(=O)N(CC(=O)Nc3ccc4c(c3)OCO4)C2=O)cc1 (stereo not given) 0.211%, C[C@@H]1CCCCCCCCC(=O)OCCN(C(=O)OC(C)(C)C)[C@H](C)CCCCCCCCC(=O)OCCN(C(=O)OC(C)(C)C)[C@H](C)CCCCCCCCC(=O)OCCN1C(=O)OC(C)(C)C -1.16%, CCCCCCn1c(=O)[nH]c2nc3cc(N)ccc3nc2c1=O -1.91%, Cc1ccc(CSc2ncnc3onc(C)c23)cc1 -0.796%, CCS(=O)(=O)Nc1ccc(C2=NN(C(=O)c3ccco3)C(c3ccc(C)cc3)C2)cc1 (stereo not given) -4.43%, Cc1ccc2c(c1)C(=O)N1[C@H]3c4cc(Cl)ccc4OC[C@@H]3[C@H](c3ccccc3)[C@]1(C)C(=O)N2 -3.44%, COc1cccc(/C=C/C(=O)NCCc2ccc(OC)c(OC)c2)c1 -1.71%, C[C@]12c3[nH]c4ccccc4c3CCN1C(=O)C(CC(=O)NCCN1CCOCC1)C[C@@H]2C(=O)N1CCCCC1 (stereo not given in full) -3.38%, O=C(Nc1cccc2ccccc12)OC1C=CS(=O)(=O)C1 (stereo not given) 2.29%, CC1(C)C2CCC1(CS(=O)(=O)N1CCN(c3ccccc3F)CC1)C(=O)C2 (stereo not given) -1.62%, O=C(Cc1ccccc1)NNC(=O)c1cccs1 4.12%, CCN1C(=O)C(CC(=O)Nc2ccc(OC)cc2)N(CCc2ccccc2F)C1=S (stereo not given) -0.736%, CC(NC(=O)CCC(=O)c1ccc(F)cc1)C1CC2CCC1C2 (stereo not given) -4.09%, COC(=O)[C@]1(Cc2ccccc2)N[C@H](CN(C)S(=O)(=O)c2ccc(F)cc2)[C@@H]2C(=O)N(Cc3ccccc3)C(=O)[C@@H]21 -1.31%, Cc1ccc(C(=O)N2CCN(c3ccc(Cl)cc3)CC2)cc1 -4.21%, CC(C)(C)c1ccc(C(=O)N2CCC(C(=O)NCc3ccncc3)CC2)cc1 2.05%, Cc1ccc2c(c1)c1c3n2CCCNC3CCC1 (stereo not given) -1.58%, COc1cc2c(cc1OC)CN(C(=O)CSc1n[nH]c(N)n1)CC2 0.695%, Cc1ccc(OCC(=O)Nc2ccccc2Sc2ccccc2)c([N+](=O)[O-])n1 -1.07%, CCN(CC)CCCOc1ccc(C)cc1Br 0.073%, CC1CCN(c2ccc3c(c2)S(=O)(=O)c2cccc(C(=O)NC4CC4)c2C3=O)CC1 -1.56%, O=C1CC(CSc2ccc(Cl)cc2)=NN1 -2.85%, CC1(C)[N+]([O-])=C2C(=[N+]([O-])C1(C)C)c1ccccc1/C2=N\O -8.61%, COc1cccc(CNC(=O)c2cc3c(cc2Cl)N2CCCCCC2=NS3(=O)=O)c1 -0.22%, CCCNC(=O)c1ccccc1N1CCN(CCCCN2C(=O)C3CCCCN3C2=O)CC1 (stereo not given) 4.2%, CCC(=O)Nc1cc2c(C)cc(=O)oc2cc1C 2.46%, CCOc1ccccc1N(CC(=O)O)S(=O)(=O)c1ccc(C)cc1 -6.21%, O=C(COC(=O)c1ccccc1SCC(=O)N1CCCC1)NC1CCS(=O)(=O)C1 (stereo not given) -13.5%, COc1ccccc1NC(=O)COC(=O)/C=C/c1cccs1 4.06%, Cc1cc(C)c(S(=O)(=O)Nc2cc(SCC(=O)O)c(O)c3ccccc23)cc1C 11.9%, CC(=O)OC(C(=O)NCc1ccc2c(c1)OCO2)c1ccccc1Cl (stereo not given) 2.67%, Nc1nc2n(n1)C(c1cccs1)CC(c1ccccc1)N2 (stereo not given) -17.4%, CCc1ccc(NC(=O)N(CCN2CCOCC2)C2CCN(C(C)=O)CC2)cc1 4.41%, CSCCC(NS(=O)(=O)c1ccc2ccccc2c1)C(=O)O (stereo not given) 0.036%, CC(=O)C[C@@H](O)CC(=O)[C@@H]1OC(=O)[C@@H](C)C/C=C\Cc2ccccc21 -0.669%, COC(=O)c1ccccc1NC(=O)CC(NCc1ccccc1)C(=O)O (stereo not given) -2.26%, COc1ccc(N2CCN(C(=O)c3nn(C)c4c3CS(=O)(=O)c3ccccc3-4)CC2)cc1 1.99%, COC(=O)C1=C(C)N(Cc2ccccc2)C(=NCCc2c[nH]c3ccccc23)N[C@H]1c1ccccc1 1.45%, COc1cccc(NC(=S)/C(=C(\[O-])c2ccc(C)c([N+](=O)[O-])c2)[n+]2ccccc2)c1 1.93%, CCC(C)NCCCOc1ccc(C)cc1OC (stereo not given) -7.21%, CNC(=O)/C(C#N)=C/c1c(N(Cc2ccccc2)Cc2ccccc2)nc2ccccn2c1=O -3.91%, Cc1cccc(NC(=O)CSc2cccc3cccnc23)c1 7.07%, Cc1occc1-c1nnc(SCC(=O)c2cc3ccccc3oc2=O)o1 2.21%, COc1ccc(OC)c(C2/C(=C(\O)c3ccc(OC)c(Cl)c3)C(=O)C(=O)N2CCN(C)C)c1 (stereo not given) -1.87%, CN(C)c1ccc(C(=O)OCC(=O)N2CCCC2)cc1 -8.32%
